From paper PMC11757107
These are yes or no findings as the source states them, for the method shown. Binding seen in cells or lysates may run through a third protein. A yes stands for co-enrichment or nearness to the bait. Other partners may have been found.

Chains of the proteins cited; added tags and fusions are not shown. Residues count along the entry.
UniProt P24593, residues 21-272: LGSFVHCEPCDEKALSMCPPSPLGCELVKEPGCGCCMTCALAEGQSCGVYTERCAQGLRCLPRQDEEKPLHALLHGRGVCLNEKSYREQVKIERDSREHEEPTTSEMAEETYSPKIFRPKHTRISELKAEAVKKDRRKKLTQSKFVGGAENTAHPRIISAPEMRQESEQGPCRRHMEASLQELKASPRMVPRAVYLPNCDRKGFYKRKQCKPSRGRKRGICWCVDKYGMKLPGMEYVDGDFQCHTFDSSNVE
UniProt P07355: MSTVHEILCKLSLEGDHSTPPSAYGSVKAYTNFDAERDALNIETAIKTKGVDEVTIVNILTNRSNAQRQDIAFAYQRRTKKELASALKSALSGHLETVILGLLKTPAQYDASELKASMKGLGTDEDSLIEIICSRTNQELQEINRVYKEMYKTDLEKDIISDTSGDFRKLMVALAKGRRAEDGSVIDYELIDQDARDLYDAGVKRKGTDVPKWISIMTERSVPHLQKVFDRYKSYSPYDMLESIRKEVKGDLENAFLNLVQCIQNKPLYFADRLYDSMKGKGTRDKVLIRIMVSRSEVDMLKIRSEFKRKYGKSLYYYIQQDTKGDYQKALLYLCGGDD

Target: IGFBP5 (human (endogenous in THP-1)) (UniProt P24593)
Assay: affinity purification with mass spectrometry; IGFBP5-IP from THP-1 lysate (NP-40 buffer, protein A/G magnetic beads, 5 washes); gel bands differing from the control IP excised and read by LC-MS; proteins exclusively detected in the IGFBP5-IP sample

ANXA2 (from UniProt P07355 1-339)
binding: binds
